Results are given in words; binding and its absence hold for the method and conditions named. Some binding calls cover weakened binding; strength is not graded here.
How the values were obtained:
[1] = target: PRO20080 ECD-Fc fusion protein (human) [IgG part: P01857]; experiment: ELISA, PRO20080-Fc coated at 2 µg/ml, streptavidin-HRP detection
[2] = target: PRO20080 ECD-Fc fusion protein (human) [IgG part: P01857]; experiment: ELISA (legend of FIG. 6)

The chains behind the UniProt entries cited, without tags or fusion partners. Where a name states a change or a piece, a line headed by the entry shows the natural chain unless it says otherwise.
UniProt Q96DU3: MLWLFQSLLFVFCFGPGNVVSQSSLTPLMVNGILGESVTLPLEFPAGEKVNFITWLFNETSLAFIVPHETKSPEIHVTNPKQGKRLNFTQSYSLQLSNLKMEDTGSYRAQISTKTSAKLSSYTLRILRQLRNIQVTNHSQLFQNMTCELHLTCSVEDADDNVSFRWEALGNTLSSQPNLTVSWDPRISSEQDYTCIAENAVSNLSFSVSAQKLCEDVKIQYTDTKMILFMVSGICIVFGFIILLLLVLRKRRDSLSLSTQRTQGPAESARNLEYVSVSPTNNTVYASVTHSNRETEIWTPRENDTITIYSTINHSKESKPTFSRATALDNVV

binding [1]: binds | binding [2]: binds
Substance: biotinylated PRO20080 (from UniProt Q96DU3 22-226) (receptor)
